Data on one substance can be found in publication PMC7877769.

These are yes or no findings as the source states them, for the method shown. In cells and extracts the contact can be indirect. Tags and fused reporters may be left off the sequences shown.

For test [1], the target named is T1, TgQCR9-FLAG (Toxoplasma gondii) (UniProt S7UVH4).
T1 sequence: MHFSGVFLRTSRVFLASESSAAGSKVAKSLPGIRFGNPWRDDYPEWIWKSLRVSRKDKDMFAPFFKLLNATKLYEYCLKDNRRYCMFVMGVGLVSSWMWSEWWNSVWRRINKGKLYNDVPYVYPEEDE
Put plainly: co-IP; parasite samples solubilized in 1% (v/v) Triton X-100; anti-HA affinity matrix or anti-FLAG M2 affinity gel; Total, Unbound and Bound fractions on SDS-PAGE, western blots with anti-HA, anti-FLAG and anti-TgTom40.

The target of test [2] is T2, TgQCR11-FLAG (Toxoplasma gondii) (UniProt S7UR33).
T2 sequence: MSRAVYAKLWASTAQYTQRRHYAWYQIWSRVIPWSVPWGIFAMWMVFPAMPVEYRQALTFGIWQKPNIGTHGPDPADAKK
The description is as above.

For the substance TgTom40 (Toxoplasma gondii), the binding result in test [1] and in test [2] was “no binding” each time.
